Data as given in PubChem BioAssay AID1224827 (NIAID, 2016).
Screen: 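Confirm genes whose knock-down changes LPS-driven TNF promoter activity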 (follow-up of hits). Cell system: RAW264.7 G9 mouse macrophage reporter clone. Knock-down reagent: single siRNA against mouse genes, 100 nM siRNA. Timing: siRNA for 2 days, then LPS about 16 h. Challenge: bacterial lipopolysaccharide (LPS), 10 ng/ml, cells fixed after overnight (about 16 h) stimulation. Measurement: 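TNF promoter reporter red fluorescence in nuclei, background subtracted, normalised per plate and to non-targeting control siRNA, as z-scores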. Scale: TNF reporter z-score, mean: higher = stronger Tnf promoter reporter signal. Hit rule: 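Active siRNA: replicate-mean z-score of 2 or more, or -2 or less; no calls for control wells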.
Shown is a random part of about 3,800 deposited reagents. Of all reagents, about 2,200 (57%) were called active. 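Active means a strong reporter change in either direction; calls are per siRNA, not per gene; qiagen siRNAs gave weaker effects.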 The numbers tell different reagents against one gene apart. Further read-outs or replicates are left out here.

{"Target gene": "Ube3c", "reagent no.": 1, "TNF reporter z-score, mean": -1.34, "outcome": "inactive"}
{"Target gene": "Ube3c", "reagent no.": 2, "TNF reporter z-score, mean": -2.94, "outcome": "active"}
{"Target gene": "Ube3c", "reagent no.": 3, "TNF reporter z-score, mean": -5.95, "outcome": "active"}
{"Target gene": "Ube3c", "reagent no.": 4, "TNF reporter z-score, mean": 9.93, "outcome": "active"}
{"Target gene": "Ube3c", "reagent no.": 5, "TNF reporter z-score, mean": 6.94, "outcome": "active"}
{"Target gene": "Ube3c", "reagent no.": 6, "TNF reporter z-score, mean": 0.743, "outcome": "inactive"}
{"Target gene": "Neurod1", "reagent no.": 1, "TNF reporter z-score, mean": -2.25, "outcome": "active"}
{"Target gene": "Neurod1", "reagent no.": 2, "TNF reporter z-score, mean": -3.17, "outcome": "active"}
{"Target gene": "Neurod1", "reagent no.": 3, "TNF reporter z-score, mean": -4.32, "outcome": "active"}
{"Target gene": "Neurod1", "reagent no.": 4, "TNF reporter z-score, mean": 1.54, "outcome": "inactive"}
{"Target gene": "Neurod1", "reagent no.": 5, "TNF reporter z-score, mean": 0.257, "outcome": "inactive"}
{"Target gene": "Neurod1", "reagent no.": 6, "TNF reporter z-score, mean": -3.79, "outcome": "active"}
